Among the data in publication doi:10.1101/2020.11.24.395905 are binding values, retold here.

The assay has as its target T1, Orco:GFP (odour receptor coreceptor fused to GFP) (Drosophila) (UniProt Q9VNB5).
T1 sequence: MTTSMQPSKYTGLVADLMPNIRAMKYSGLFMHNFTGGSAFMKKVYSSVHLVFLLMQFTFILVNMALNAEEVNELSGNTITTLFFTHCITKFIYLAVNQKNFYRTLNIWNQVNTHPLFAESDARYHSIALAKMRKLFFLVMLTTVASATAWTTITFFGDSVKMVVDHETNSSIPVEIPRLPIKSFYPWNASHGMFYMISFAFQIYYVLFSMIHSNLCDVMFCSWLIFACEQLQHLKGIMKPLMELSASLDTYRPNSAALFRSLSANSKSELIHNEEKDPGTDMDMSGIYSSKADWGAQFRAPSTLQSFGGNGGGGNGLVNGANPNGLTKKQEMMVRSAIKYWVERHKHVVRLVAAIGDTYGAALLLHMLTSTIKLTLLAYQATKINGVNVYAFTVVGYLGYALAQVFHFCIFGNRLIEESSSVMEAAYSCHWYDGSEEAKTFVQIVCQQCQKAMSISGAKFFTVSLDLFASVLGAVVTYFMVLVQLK
Put plainly: co-IP.

Results are given in words; binding and its absence hold for the method and conditions named. In cells and extracts the contact can be indirect. A result given as binding can be weak or reduced; the word gives no strength. Where a sequence is shown, tags or fusion partners need not be part of it.

Consider “DmKAP (kinesin associated protein, accessory subunit of kinesin-2) (Drosophila (endogenous in adult heads))”, for which the binding result is on record as “binds”.
